{"source": "patent US20020123504A1", "about": "“Lactose-free, non-hygroscopic and anhydrous pharmaceutical compositions of descarboethoxyloratadine” (SEPRACOR INC., priority 1997, published 2002)", "origin": "cited, not measured here", "tested_on": "tumor promotion", "conditions": "cited from earlier work", "data": [{"compound": "Clc1ccc2c(c1)CCc1cccnc1C2=C1CCNCC1", "note": "[DCL, 8-chloro-6,11-dihydro-11-(4-piperidylidene)-5H-benzo[5,6]cyclohepta[1,2-b]pyridine]", "values": [{"measurement": "Activity in tumor promotion relative to loratadine", "result": "five to seven times less active"}]}]}
